PubChem BioAssay AID1159584 | Peter MacCallum Cancer Centre, 2016

Aim: 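Genes that CDH1-null MCF10A cells selectively depend on to survive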 (primary screen)
Cell system: human MCF10A breast epithelial cells, parental and CDH1-null
Reagent: siRNA against human genes
Read-out: 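ATP luminescence (CellTiter-Glo) viability per line relative to mean mock wells over all plates, and the ratio of CDH1-null to parental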
Direction: CDH1-null / parental viability ratio: higher = CDH1-null cells survive relatively better than parental; CDH1-null viability vs mock: higher = more viable CDH1-null cells
Units: CDH1-null viability vs mock in fraction of mock
In all, the deposit lists about 18,000 reagents; shown is a part drawn at random. Not all columns of the deposit are shown. The record does not give: the amount of reagent, the time to read-out.

ISYNA1 (inositol-3-phosphate synthase 1) gave CDH1-null / parental viability ratio 0.74; CDH1-null viability vs mock 0.65.
Depletion of RBM15B (RNA binding motif protein 15B) gave: CDH1-null / parental viability ratio 0.92; CDH1-null viability vs mock 0.76.
Depletion of KCNB1 (potassium voltage-gated channel subfamily B member 1) came out at: CDH1-null / parental viability ratio 1.2; CDH1-null viability vs mock 0.77.
Depletion of CXCL6 (C-X-C motif chemokine ligand 6) came out at: CDH1-null / parental viability ratio 0.77; CDH1-null viability vs mock 0.46.
Silencing of DHTKD1 (dehydrogenase E1 and transketolase domain containing 1) came out at: CDH1-null / parental viability ratio 1.03; CDH1-null viability vs mock 0.72.
After knock-down of DEFB124 (defensin beta 124), the record shows CDH1-null / parental viability ratio 1.06; CDH1-null viability vs mock 0.76.
CHLSN (cholesin) showed CDH1-null / parental viability ratio 1.04; CDH1-null viability vs mock 0.84.
Against TAS1R2 (taste 1 receptor member 2) the deposit lists CDH1-null / parental viability ratio 1.63; CDH1-null viability vs mock 0.62.
After knock-down of SRCIN1 (SRC kinase signaling inhibitor 1), the record shows CDH1-null / parental viability ratio 0.73; CDH1-null viability vs mock 0.44.
Against KIZ (kizuna centrosomal protein), the values are CDH1-null / parental viability ratio 0.84; CDH1-null viability vs mock 0.66.
Knock-down of NEURL2 (neuralized E3 ubiquitin protein ligase 2) gave: CDH1-null / parental viability ratio 1.08; CDH1-null viability vs mock 0.84.
Against LZTS3 (leucine zipper tumor suppressor family member 3) the deposit lists CDH1-null / parental viability ratio 0.96; CDH1-null viability vs mock 0.5.
NPAS3 (neuronal PAS domain protein 3) gave CDH1-null / parental viability ratio 1.63; CDH1-null viability vs mock 0.62.
Against ETS1 (ETS proto-oncogene 1, transcription factor), the values are CDH1-null / parental viability ratio 0.88; CDH1-null viability vs mock 0.72.
After knock-down of MBNL2 (muscleblind like splicing regulator 2) the results were CDH1-null / parental viability ratio 0.87; CDH1-null viability vs mock 0.62.
For PROSER3 (proline and serine rich 3), the values are CDH1-null / parental viability ratio 1.08; CDH1-null viability vs mock 0.42.
With knock-down of POU5F1 (POU class 5 homeobox 1), the screen gave CDH1-null / parental viability ratio 0.87; CDH1-null viability vs mock 0.62.
COX16 (cytochrome c oxidase assembly factor COX16) gave CDH1-null / parental viability ratio 1.46; CDH1-null viability vs mock 1.11.
Depletion of CEP128 (centrosomal protein 128) came out at: CDH1-null / parental viability ratio 0.94; CDH1-null viability vs mock 1.05.
Against CFC1 (cryptic, EGF-CFC family member 1), the values are CDH1-null / parental viability ratio 1.15; CDH1-null viability vs mock 0.9.
Depletion of ASPNAT (aspartate N-acetyltransferase) gave: CDH1-null / parental viability ratio 1.24; CDH1-null viability vs mock 0.82.
Depletion of CENATAC (centrosomal AT-AC splicing factor) gave: CDH1-null / parental viability ratio 0.84; CDH1-null viability vs mock 0.72.
For KCNA2 (potassium voltage-gated channel subfamily A member 2), the values are CDH1-null / parental viability ratio 1.16; CDH1-null viability vs mock 1.
DSG4 (desmoglein 4) showed CDH1-null / parental viability ratio 1.18; CDH1-null viability vs mock 0.72.
KLHL14 (kelch like family member 14) showed CDH1-null / parental viability ratio 1.19; CDH1-null viability vs mock 0.88.
After knock-down of FGF10 (fibroblast growth factor 10), the screen gave CDH1-null / parental viability ratio 1.1; CDH1-null viability vs mock 0.9.
With knock-down of KRTAP19-4 (keratin associated protein 19-4), the record shows CDH1-null / parental viability ratio 1.31; CDH1-null viability vs mock 0.84.
Against C11orf87 (chromosome 11 open reading frame 87), the values are CDH1-null / parental viability ratio 1; CDH1-null viability vs mock 0.86.
For PAQR5 (progestin and adipoQ receptor family member 5) the deposit lists CDH1-null / parental viability ratio 0.73; CDH1-null viability vs mock 0.45.
BORCS7 (BLOC-1 related complex subunit 7) scored CDH1-null / parental viability ratio 1.55; CDH1-null viability vs mock 1.15.
Against DNAL1 (dynein axonemal light chain 1) the deposit lists CDH1-null / parental viability ratio 0.96; CDH1-null viability vs mock 0.73.
Against RASAL1 (RAS protein activator like 1), the values are CDH1-null / parental viability ratio 1.1; CDH1-null viability vs mock 0.92.
For INTS6 (integrator complex subunit 6), the entry reads CDH1-null / parental viability ratio 0.85; CDH1-null viability vs mock 0.8.
With knock-down of PANX2 (pannexin 2) the results were CDH1-null / parental viability ratio 1.13; CDH1-null viability vs mock 0.26.
NKX2-3 (NK2 homeobox 3) gave CDH1-null / parental viability ratio 0.91; CDH1-null viability vs mock 0.82.

3 entries already listed, sorted by “CDH1-null / parental viability ratio”, lowest first.
SRCIN1 (SRC kinase signaling inhibitor 1): CDH1-null / parental viability ratio = 0.73; CDH1-null viability vs mock = 0.44
KIZ (kizuna centrosomal protein): CDH1-null / parental viability ratio = 0.84; CDH1-null viability vs mock = 0.66
TAS1R2 (taste 1 receptor member 2): CDH1-null / parental viability ratio = 1.63; CDH1-null viability vs mock = 0.62
